Data reported in US10266537B2, “3-acetylenyl-pyrazole-pyrimidine derivative, and preparation method therefor and uses thereof” (Si Chuan University, priority 2015, dated 2019).

The chains behind the UniProt entries cited, without tags or fusion partners. Where a name states a change or a piece, a line headed by the entry shows the natural chain unless it says otherwise. Residues count along the entry.
UniProt O60285: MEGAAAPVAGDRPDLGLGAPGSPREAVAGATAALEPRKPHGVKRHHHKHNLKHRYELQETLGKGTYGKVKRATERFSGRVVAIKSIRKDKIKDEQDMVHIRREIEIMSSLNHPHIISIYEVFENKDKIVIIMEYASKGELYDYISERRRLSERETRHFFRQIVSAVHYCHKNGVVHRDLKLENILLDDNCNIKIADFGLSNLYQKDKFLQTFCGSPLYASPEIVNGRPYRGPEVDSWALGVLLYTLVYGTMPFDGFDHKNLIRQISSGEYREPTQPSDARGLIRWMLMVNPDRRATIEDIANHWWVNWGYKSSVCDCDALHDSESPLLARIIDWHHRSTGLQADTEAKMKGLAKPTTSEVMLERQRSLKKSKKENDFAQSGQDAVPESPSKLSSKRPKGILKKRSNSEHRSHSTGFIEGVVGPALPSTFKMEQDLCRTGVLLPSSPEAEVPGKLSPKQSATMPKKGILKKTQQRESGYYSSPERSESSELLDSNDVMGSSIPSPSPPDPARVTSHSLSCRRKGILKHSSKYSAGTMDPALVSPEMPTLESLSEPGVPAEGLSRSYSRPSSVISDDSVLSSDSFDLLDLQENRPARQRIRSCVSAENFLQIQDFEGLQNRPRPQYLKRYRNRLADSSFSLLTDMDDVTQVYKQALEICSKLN
UniProt P49759: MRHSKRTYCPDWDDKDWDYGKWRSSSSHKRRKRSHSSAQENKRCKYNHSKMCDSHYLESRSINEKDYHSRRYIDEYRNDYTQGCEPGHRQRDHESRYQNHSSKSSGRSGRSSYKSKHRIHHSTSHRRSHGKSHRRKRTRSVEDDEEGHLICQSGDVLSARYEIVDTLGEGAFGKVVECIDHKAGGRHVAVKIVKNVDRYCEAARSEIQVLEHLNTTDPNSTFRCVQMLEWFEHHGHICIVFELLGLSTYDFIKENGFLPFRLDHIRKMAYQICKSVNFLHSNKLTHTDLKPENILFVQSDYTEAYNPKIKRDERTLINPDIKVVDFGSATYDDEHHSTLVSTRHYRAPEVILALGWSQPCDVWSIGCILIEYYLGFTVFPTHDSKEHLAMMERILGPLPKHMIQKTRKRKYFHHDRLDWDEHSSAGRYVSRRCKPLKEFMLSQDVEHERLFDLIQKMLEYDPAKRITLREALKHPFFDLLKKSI
UniProt P23458: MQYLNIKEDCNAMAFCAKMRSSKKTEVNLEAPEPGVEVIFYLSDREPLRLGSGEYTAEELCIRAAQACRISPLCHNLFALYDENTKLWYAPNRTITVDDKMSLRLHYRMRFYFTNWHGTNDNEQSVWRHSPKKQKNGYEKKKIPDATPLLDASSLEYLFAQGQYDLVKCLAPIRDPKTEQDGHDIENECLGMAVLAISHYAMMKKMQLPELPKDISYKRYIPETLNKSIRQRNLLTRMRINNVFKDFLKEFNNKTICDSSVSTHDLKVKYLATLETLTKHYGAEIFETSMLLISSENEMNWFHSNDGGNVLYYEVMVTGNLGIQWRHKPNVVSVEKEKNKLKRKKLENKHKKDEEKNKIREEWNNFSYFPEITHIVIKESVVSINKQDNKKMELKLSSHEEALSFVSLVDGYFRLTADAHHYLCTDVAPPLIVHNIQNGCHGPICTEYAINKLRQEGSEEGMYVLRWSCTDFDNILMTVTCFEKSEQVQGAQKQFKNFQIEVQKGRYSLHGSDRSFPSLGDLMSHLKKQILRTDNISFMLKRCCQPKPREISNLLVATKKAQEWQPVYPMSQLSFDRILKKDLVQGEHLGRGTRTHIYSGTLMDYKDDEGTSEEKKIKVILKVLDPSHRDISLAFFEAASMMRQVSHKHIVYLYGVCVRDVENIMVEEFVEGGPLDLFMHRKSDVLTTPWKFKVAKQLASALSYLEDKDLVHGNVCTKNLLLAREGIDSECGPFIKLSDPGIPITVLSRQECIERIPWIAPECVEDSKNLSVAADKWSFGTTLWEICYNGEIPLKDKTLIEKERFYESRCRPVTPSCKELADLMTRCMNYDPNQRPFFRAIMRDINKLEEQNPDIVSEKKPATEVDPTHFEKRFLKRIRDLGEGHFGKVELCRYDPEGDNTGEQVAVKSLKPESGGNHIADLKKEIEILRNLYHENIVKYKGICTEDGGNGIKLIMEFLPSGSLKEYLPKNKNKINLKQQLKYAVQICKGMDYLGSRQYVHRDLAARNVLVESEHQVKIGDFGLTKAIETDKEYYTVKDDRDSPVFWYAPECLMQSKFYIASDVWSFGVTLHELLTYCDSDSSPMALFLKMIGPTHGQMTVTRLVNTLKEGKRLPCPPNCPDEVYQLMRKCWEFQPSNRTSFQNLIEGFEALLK
UniProt Q9HBH9: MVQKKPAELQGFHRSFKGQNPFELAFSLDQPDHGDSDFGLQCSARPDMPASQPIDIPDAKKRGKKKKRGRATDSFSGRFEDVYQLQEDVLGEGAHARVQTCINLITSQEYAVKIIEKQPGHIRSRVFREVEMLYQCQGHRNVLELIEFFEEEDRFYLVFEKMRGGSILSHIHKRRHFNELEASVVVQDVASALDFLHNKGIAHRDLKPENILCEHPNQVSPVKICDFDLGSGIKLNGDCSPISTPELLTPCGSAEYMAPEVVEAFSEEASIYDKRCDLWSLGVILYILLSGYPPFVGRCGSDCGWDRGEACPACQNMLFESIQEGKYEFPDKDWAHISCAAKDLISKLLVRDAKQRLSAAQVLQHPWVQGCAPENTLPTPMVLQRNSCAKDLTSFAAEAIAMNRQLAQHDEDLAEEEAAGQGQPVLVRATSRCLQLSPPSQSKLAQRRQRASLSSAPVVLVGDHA
UniProt P48426: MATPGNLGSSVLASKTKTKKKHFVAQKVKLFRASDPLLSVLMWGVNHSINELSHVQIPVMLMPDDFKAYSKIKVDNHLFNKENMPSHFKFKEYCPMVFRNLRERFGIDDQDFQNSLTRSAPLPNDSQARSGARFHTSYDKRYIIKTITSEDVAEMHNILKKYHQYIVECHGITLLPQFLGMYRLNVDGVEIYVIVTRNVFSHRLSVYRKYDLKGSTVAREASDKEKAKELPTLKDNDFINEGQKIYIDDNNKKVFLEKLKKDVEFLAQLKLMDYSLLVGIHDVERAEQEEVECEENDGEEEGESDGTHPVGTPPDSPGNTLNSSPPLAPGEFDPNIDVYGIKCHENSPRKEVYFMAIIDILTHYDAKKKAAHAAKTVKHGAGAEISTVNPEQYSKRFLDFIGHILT
UniProt P07333, 20-972: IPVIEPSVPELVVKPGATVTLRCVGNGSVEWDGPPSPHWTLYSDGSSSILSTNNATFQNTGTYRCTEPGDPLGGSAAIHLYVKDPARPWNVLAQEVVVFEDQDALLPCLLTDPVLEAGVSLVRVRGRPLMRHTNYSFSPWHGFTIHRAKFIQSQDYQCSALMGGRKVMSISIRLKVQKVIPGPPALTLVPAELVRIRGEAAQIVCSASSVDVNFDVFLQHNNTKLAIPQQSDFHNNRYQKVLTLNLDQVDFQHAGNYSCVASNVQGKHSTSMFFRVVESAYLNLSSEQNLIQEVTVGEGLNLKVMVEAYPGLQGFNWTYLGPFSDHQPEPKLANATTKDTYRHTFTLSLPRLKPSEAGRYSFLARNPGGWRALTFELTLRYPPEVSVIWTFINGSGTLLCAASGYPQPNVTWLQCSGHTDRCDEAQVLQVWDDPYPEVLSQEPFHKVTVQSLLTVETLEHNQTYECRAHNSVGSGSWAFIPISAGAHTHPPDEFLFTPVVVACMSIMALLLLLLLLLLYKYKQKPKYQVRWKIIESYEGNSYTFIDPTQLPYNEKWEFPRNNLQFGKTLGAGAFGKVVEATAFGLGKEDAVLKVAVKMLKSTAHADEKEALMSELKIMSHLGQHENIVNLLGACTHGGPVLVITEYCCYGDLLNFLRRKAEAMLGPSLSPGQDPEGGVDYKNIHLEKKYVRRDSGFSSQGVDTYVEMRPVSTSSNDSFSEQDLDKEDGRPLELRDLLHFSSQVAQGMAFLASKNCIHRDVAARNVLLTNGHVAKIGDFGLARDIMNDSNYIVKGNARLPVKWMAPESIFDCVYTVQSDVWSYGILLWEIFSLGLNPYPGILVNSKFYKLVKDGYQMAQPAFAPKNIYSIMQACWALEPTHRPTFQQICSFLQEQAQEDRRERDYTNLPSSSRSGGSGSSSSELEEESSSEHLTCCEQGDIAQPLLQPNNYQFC
UniProt Q8N568: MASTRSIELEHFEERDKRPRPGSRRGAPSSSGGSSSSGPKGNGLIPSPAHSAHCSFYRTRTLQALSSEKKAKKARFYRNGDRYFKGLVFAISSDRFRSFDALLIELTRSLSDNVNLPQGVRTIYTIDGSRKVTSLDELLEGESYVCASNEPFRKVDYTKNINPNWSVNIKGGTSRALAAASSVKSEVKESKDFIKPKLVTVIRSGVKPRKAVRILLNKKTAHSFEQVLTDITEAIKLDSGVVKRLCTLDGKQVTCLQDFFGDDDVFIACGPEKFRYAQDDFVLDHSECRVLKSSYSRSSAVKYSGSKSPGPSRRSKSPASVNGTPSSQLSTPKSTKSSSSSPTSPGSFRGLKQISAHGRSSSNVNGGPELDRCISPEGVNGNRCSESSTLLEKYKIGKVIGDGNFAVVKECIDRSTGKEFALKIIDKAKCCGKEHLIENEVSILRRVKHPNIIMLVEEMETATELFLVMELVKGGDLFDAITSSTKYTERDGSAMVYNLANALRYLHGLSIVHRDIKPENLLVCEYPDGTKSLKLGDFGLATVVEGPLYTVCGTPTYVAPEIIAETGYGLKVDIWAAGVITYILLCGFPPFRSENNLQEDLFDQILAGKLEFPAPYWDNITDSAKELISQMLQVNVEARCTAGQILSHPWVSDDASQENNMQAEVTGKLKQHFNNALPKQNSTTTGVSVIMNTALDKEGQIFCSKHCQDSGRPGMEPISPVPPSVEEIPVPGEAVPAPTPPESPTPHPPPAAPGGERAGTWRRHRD
UniProt Q16513: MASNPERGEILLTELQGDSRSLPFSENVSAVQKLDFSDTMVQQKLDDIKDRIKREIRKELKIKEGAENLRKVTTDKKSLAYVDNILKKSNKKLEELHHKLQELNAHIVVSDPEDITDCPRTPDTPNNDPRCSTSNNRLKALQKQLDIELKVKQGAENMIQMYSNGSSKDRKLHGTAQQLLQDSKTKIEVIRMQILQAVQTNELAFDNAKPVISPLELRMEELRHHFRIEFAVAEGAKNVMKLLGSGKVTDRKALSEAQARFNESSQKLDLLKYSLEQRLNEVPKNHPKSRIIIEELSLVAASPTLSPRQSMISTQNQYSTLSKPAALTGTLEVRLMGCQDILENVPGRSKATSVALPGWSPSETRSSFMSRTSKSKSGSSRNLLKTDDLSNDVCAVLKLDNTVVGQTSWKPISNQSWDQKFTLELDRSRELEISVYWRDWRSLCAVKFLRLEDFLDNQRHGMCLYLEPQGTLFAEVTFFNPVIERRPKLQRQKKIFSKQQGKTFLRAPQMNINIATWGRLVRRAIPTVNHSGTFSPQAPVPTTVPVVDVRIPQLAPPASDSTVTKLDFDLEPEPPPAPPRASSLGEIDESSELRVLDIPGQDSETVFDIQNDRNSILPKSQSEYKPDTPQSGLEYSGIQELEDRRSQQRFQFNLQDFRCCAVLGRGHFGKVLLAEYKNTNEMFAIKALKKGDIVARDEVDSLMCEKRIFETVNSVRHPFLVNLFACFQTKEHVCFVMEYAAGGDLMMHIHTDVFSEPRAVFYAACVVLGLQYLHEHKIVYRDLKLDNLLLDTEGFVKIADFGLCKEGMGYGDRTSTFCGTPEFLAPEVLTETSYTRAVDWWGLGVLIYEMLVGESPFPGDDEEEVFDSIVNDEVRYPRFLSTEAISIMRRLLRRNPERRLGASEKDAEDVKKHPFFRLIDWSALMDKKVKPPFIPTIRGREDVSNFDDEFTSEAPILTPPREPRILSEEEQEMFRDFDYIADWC
UniProt P51617, whole entry: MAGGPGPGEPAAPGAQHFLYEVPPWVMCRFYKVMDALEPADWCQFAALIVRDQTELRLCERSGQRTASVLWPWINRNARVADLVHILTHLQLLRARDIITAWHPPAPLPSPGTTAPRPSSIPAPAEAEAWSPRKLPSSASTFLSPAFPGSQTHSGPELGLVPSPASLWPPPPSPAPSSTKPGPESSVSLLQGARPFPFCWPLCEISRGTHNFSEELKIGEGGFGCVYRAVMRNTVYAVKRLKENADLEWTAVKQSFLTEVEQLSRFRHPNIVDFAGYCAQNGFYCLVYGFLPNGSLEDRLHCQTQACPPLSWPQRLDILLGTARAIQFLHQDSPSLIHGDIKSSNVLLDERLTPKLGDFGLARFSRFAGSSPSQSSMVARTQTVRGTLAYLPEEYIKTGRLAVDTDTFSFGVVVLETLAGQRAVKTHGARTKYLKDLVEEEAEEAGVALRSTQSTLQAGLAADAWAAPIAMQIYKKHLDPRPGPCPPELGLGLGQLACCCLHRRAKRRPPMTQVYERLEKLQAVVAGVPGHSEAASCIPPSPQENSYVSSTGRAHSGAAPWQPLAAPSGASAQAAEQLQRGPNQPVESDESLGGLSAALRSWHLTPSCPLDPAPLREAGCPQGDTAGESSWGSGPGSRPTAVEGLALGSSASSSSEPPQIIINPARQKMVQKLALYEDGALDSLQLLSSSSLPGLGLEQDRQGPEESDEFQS

Legend:
MELK(h) = MELK(h) (Homo sapiens (Human), UniProt Q14680); assay: Kinase inhibition assay (KinaseProfiler, 33P-ATP); type: biochemical; conditions: read-out: The percentage of the remaining active protein
JNK3(h) = JNK3(h) (Homo sapiens (Human), UniProt P53779); assay: Kinase inhibition assay (KinaseProfiler, 33P-ATP); type: biochemical; conditions: read-out: The percentage of the remaining active protein
ARK5(h) = ARK5(h) (Homo sapiens (Human), UniProt O60285); assay: Kinase inhibition assay (KinaseProfiler, 33P-ATP); type: biochemical; conditions: read-out: The percentage of the remaining active protein
Snk(h) = Snk(h) (Homo sapiens (Human), UniProt Q9NYY3); assay: Kinase inhibition assay (KinaseProfiler, 33P-ATP); type: biochemical; conditions: read-out: The percentage of the remaining active protein
JAK2 = JAK2 (Homo sapiens (Human), UniProt O60674); assay: Kinase inhibition assay (KinaseProfiler, 33P-ATP); type: biochemical; conditions: JAK2(h), read-out: The percentage of the remaining active protein
TAO1(h) = TAO1(h) (Homo sapiens (Human), UniProt Q7L7X3); assay: Kinase inhibition assay (KinaseProfiler, 33P-ATP); type: biochemical; conditions: read-out: The percentage of the remaining active protein
CLK1(h) = CLK1(h) (Homo sapiens (Human), UniProt P49759); assay: Kinase inhibition assay (KinaseProfiler, 33P-ATP); type: biochemical; conditions: read-out: The percentage of the remaining active protein
TAK1 = TAK1 (Homo sapiens (Human), UniProt O43318); assay: Kinase inhibition assay (KinaseProfiler, 33P-ATP); type: biochemical; conditions: TAK1(h), read-out: The percentage of the remaining active protein
PRAK(h) = PRAK(h) (Homo sapiens (Human), UniProt Q8IW41); assay: Kinase inhibition assay (KinaseProfiler, 33P-ATP); type: biochemical; conditions: read-out: The percentage of the remaining active protein
Txk = Txk (Homo sapiens (Human), UniProt P42681); assay: Kinase inhibition assay (KinaseProfiler, 33P-ATP); type: biochemical; conditions: Txk(h), read-out: The percentage of the remaining active protein
DMPK(h) = DMPK(h) (Homo sapiens (Human), UniProt Q09013); assay: Kinase inhibition assay (KinaseProfiler, 33P-ATP); type: biochemical; conditions: read-out: The percentage of the remaining active protein
Hck = Hck (Homo sapiens (Human), UniProt P08631); assay: Kinase inhibition assay (KinaseProfiler, 33P-ATP); type: biochemical; conditions: Hck(h), read-out: The percentage of the remaining active protein
MSSK1(h) = MSSK1(h) (Homo sapiens (Human), UniProt Q9UPE1); assay: Kinase inhibition assay (KinaseProfiler, 33P-ATP); type: biochemical; conditions: read-out: The percentage of the remaining active protein
DAPK1(h) = DAPK1(h) (Homo sapiens (Human), UniProt P53355); assay: Kinase inhibition assay (KinaseProfiler, 33P-ATP); type: biochemical; conditions: read-out: The percentage of the remaining active protein
NEK11(h) = NEK11(h) (Homo sapiens (Human), UniProt Q8NG66); assay: Kinase inhibition assay (KinaseProfiler, 33P-ATP); type: biochemical; conditions: read-out: The percentage of the remaining active protein
PKA(h) = PKA(h) (Homo sapiens (Human), UniProt P17612); assay: Kinase inhibition assay (KinaseProfiler, 33P-ATP); type: biochemical; conditions: read-out: The percentage of the remaining active protein
MLK1(h) = MLK1(h) (Homo sapiens (Human), UniProt P80192); assay: Kinase inhibition assay (KinaseProfiler, 33P-ATP); type: biochemical; conditions: read-out: The percentage of the remaining active protein
MLCK(h) = assay: Kinase inhibition assay (KinaseProfiler, 33P-ATP); type: biochemical, human; conditions: 10 μM
IRR(h) = IRR(h) (Homo sapiens (Human), UniProt P14616); assay: Kinase inhibition assay (KinaseProfiler, 33P-ATP); type: biochemical; conditions: read-out: The percentage of the remaining active protein
JAK3(h) = JAK3(h) (Homo sapiens (Human), UniProt P52333); assay: Kinase inhibition assay (KinaseProfiler, 33P-ATP); type: biochemical; conditions: read-out: The percentage of the remaining active protein
KDR = KDR (Homo sapiens (Human), UniProt P35968); assay: Kinase inhibition assay (KinaseProfiler, 33P-ATP); type: biochemical; conditions: KDR(h), read-out: The percentage of the remaining active protein
TrkA = TrkA (Homo sapiens (Human), UniProt P04629); assay: Kinase inhibition assay (KinaseProfiler, 33P-ATP); type: biochemical; conditions: TrkA(h), read-out: The percentage of the remaining active protein
LIMK1 = LIMK1 (Homo sapiens (Human), UniProt P53667); assay: biochemical; conditions: read-out: The percentage of the remaining active protein
Lck = Lck (Homo sapiens (Human), UniProt P06239); assay: Kinase inhibition assay (KinaseProfiler, 33P-ATP); type: biochemical; conditions: Lck(h), read-out: The percentage of the remaining active protein
PKD2(h) = PKD2(h) (Homo sapiens (Human), UniProt Q9BZL6); assay: Kinase inhibition assay (KinaseProfiler, 33P-ATP); type: biochemical; conditions: read-out: The percentage of the remaining active protein
PhKγ2(h) = PhKγ2(h) (Homo sapiens (Human), UniProt P15735); assay: Kinase inhibition assay (KinaseProfiler, 33P-ATP); type: biochemical; conditions: read-out: The percentage of the remaining active protein
JAK1 = JAK1 (Homo sapiens (Human), UniProt P23458); assay: Kinase inhibition assay (KinaseProfiler, 33P-ATP); type: biochemical; conditions: JAK1(h), read-out: The percentage of the remaining active protein
MEK1(h) = MEK1(h) (Homo sapiens (Human), UniProt Q02750); assay: Kinase inhibition assay (KinaseProfiler, 33P-ATP); conditions: read-out: The percentage of the remaining active protein
LOK(h) = LOK(h) (Homo sapiens (Human), UniProt O94804); assay: Kinase inhibition assay (KinaseProfiler, 33P-ATP); type: biochemical; conditions: read-out: The percentage of the remaining active protein
ACK1 = ACK1 (Homo sapiens (Human), UniProt Q07912); assay: Kinase inhibition assay (KinaseProfiler, 33P-ATP); type: biochemical; conditions: ACK1(h), read-out: The percentage of the remaining active protein
GCK(h) = GCK(h) (Homo sapiens (Human), UniProt Q12851); assay: Kinase inhibition assay (KinaseProfiler, 33P-ATP); type: biochemical; conditions: read-out: The percentage of the remaining active protein
CSK = CSK (Homo sapiens (Human), UniProt P41240); assay: Kinase inhibition assay (KinaseProfiler, 33P-ATP); type: biochemical; conditions: CSK(h), read-out: The percentage of the remaining active protein
JNK1α1(h) = JNK1α1(h) (Homo sapiens (Human), UniProt P45983); assay: Kinase inhibition assay (KinaseProfiler, 33P-ATP); type: biochemical; conditions: read-out: The percentage of the remaining active protein
PEK(h) = PEK(h) (Homo sapiens (Human), UniProt Q9NZJ5); assay: Kinase inhibition assay (KinaseProfiler, 33P-ATP); type: biochemical; conditions: read-out: The percentage of the remaining active protein
Mnk2(h) = Mnk2(h) (Homo sapiens (Human), UniProt Q9HBH9); assay: Kinase inhibition assay (KinaseProfiler, 33P-ATP); type: biochemical; conditions: read-out: The percentage of the remaining active protein
Rsk1(h) = Rsk1(h) (Homo sapiens (Human), UniProt Q15418); assay: Kinase inhibition assay (KinaseProfiler, 33P-ATP); type: biochemical; conditions: read-out: The percentage of the remaining active protein
PIP4K2a(h) = PIP4K2a(h) (Homo sapiens (Human), UniProt P48426); assay: Kinase inhibition assay (KinaseProfiler, 33P-ATP); type: biochemical; conditions: read-out: The percentage of the remaining active protein
MRCKα(h) = MRCKα(h) (Homo sapiens (Human), UniProt Q5VT25); assay: Kinase inhibition assay (KinaseProfiler, 33P-ATP); type: biochemical; conditions: read-out: The percentage of the remaining active protein
DDR1 = DDR1 (Homo sapiens (Human), UniProt Q08345); assay: Kinase inhibition assay (KinaseProfiler, 33P-ATP); type: biochemical; conditions: DDR1(h), read-out: The percentage of the remaining active protein
CaMKK2(h) = CaMKK2(h) (Homo sapiens (Human), UniProt Q96RR4); assay: Kinase inhibition assay (KinaseProfiler, 33P-ATP); type: biochemical; conditions: read-out: The percentage of the remaining active protein
GRK1(h) = GRK1(h) (Homo sapiens (Human), UniProt Q15835); assay: Kinase inhibition assay (KinaseProfiler, 33P-ATP); type: biochemical; conditions: read-out: The percentage of the remaining active protein
Fms(h) = Fms(h) (Homo sapiens (Human), UniProt P07333); assay: Kinase inhibition assay (KinaseProfiler, 33P-ATP); type: biochemical; conditions: read-out: The percentage of the remaining active protein
BRK = BRK (Homo sapiens (Human), UniProt Q13882); assay: Kinase inhibition assay (KinaseProfiler, 33P-ATP); type: biochemical; conditions: BRK(h), read-out: The percentage of the remaining active protein
Fgr = Fgr (Homo sapiens (Human), UniProt P09769); assay: Kinase inhibition assay (KinaseProfiler, 33P-ATP); type: biochemical; conditions: Fgr(h), read-out: The percentage of the remaining active protein
NLK(h) = NLK(h) (Homo sapiens (Human), UniProt Q9UBE8); assay: Kinase inhibition assay (KinaseProfiler, 33P-ATP); type: biochemical; conditions: read-out: The percentage of the remaining active protein
DCAMKL2(h) = DCAMKL2(h) (Homo sapiens (Human), UniProt Q8N568); assay: Kinase inhibition assay (KinaseProfiler, 33P-ATP); type: biochemical; conditions: read-out: The percentage of the remaining active protein
EphB1 = EphB1 (Homo sapiens (Human), UniProt P54762); assay: Kinase inhibition assay (KinaseProfiler, 33P-ATP); type: biochemical; conditions: EphB1(h), read-out: The percentage of the remaining active protein
p70S6K(h) = p70S6K(h) (Homo sapiens (Human), UniProt P23443); assay: Kinase inhibition assay (KinaseProfiler, 33P-ATP); type: biochemical; conditions: read-out: The percentage of the remaining active protein
Lyn = Lyn (Homo sapiens (Human), UniProt P07948); assay: Kinase inhibition assay (KinaseProfiler, 33P-ATP); type: biochemical; conditions: Lyn(h), read-out: The percentage of the remaining active protein
EphA1(h) = EphA1(h) (Homo sapiens (Human), UniProt P21709); assay: Kinase inhibition assay (KinaseProfiler, 33P-ATP); type: biochemical; conditions: read-out: The percentage of the remaining active protein
SIK(h) = SIK(h) (Homo sapiens (Human), UniProt P57059); assay: Kinase inhibition assay (KinaseProfiler, 33P-ATP); type: biochemical; conditions: read-out: The percentage of the remaining active protein
PRK2(h) = PRK2(h) (Homo sapiens (Human), UniProt Q16513); assay: Kinase inhibition assay (KinaseProfiler, 33P-ATP); type: biochemical; conditions: read-out: The percentage of the remaining active protein
JNK2α2(h) = JNK2α2(h) (Homo sapiens (Human), UniProt P45984); assay: Kinase inhibition assay (KinaseProfiler, 33P-ATP); type: biochemical; conditions: read-out: The percentage of the remaining active protein
IRAK1(h) = IRAK1(h) (Homo sapiens (Human), UniProt P51617); assay: Kinase inhibition assay (KinaseProfiler, 33P-ATP); type: biochemical; conditions: read-out: The percentage of the remaining active protein
LRRK2(h) = LRRK2(h) (Homo sapiens (Human), UniProt Q5S007); assay: Kinase inhibition assay (KinaseProfiler, 33P-ATP); type: biochemical; conditions: read-out: The percentage of the remaining active protein

## Cc1ccc(NC(=O)c2cccc(C(F)(F)F)c2)cc1C#Cc1nn([C@H]2CC[C@H](O)CC2)c2ncnc(N)c12 [Compound 100]
MELK(h)
  remaining activity at 10 µM: 30%
JNK3(h)
  remaining activity at 10 µM: 26%
ARK5(h)
  remaining activity at 10 µM: 115%
Snk(h)
  remaining activity at 10 µM: 100%
JAK2
  remaining activity at 10 µM: 7%
TAO1(h)
  remaining activity at 10 µM: 15%
CLK1(h)
  remaining activity at 10 µM: 67%
TAK1
  remaining activity at 10 µM: 6%
PRAK(h)
  remaining activity at 10 µM: 101%
Txk
  remaining activity at 10 µM: -1%
DMPK(h)
  remaining activity at 10 µM: 62%
Hck
  remaining activity at 10 µM: -1%
MSSK1(h)
  remaining activity at 10 µM: 68%
DAPK1(h)
  remaining activity at 10 µM: 101%
NEK11(h)
  remaining activity at 10 µM: 76%
PKA(h)
  remaining activity at 10 µM: 49%
MLK1(h)
  remaining activity at 10 µM: 10%
MLCK(h)
  The percentage of the remaining active protein: 100%
IRR(h)
  remaining activity at 10 µM: 85%
JAK3(h)
  remaining activity at 10 µM: 7%
KDR
  remaining activity at 10 µM: 5%
TrkA
  remaining activity at 10 µM: 66%
LIMK1
  remaining activity at 10 µM: 20%
Lck
  remaining activity at 10 µM: 0%
PKD2(h)
  remaining activity at 10 µM: 115%
PhKγ2(h)
  remaining activity at 10 µM: 117%
JAK1
  remaining activity at 10 µM: 0%
MEK1(h)
  remaining activity at 10 µM: 72%
LOK(h)
  remaining activity at 10 µM: 5%
ACK1
  remaining activity at 10 µM: 8%
GCK(h)
  remaining activity at 10 µM: 29%
CSK
  remaining activity at 10 µM: -4%
JNK1α1(h)
  remaining activity at 10 µM: 79%
PEK(h)
  remaining activity at 10 µM: 46%
Mnk2(h)
  remaining activity at 10 µM: 84%
Rsk1(h)
  remaining activity at 10 µM: 60%
PIP4K2a(h)
  remaining activity at 10 µM: 101%
MRCKα(h)
  remaining activity at 10 µM: 101%
DDR1
  remaining activity at 10 µM: 2%
CaMKK2(h)
  remaining activity at 10 µM: 90%
GRK1(h)
  remaining activity at 10 µM: 88%
Fms(h)
  remaining activity at 10 µM: 0%
BRK
  remaining activity at 10 µM: 46%
Fgr
  remaining activity at 10 µM: 0%
NLK(h)
  remaining activity at 10 µM: 63%
DCAMKL2(h)
  remaining activity at 10 µM: 120%
EphB1
  remaining activity at 10 µM: -3%
p70S6K(h)
  remaining activity at 10 µM: 30%
Lyn
  remaining activity at 10 µM: 1%
EphA1(h)
  remaining activity at 10 µM: 0%
SIK(h)
  remaining activity at 10 µM: 17%
PRK2(h)
  remaining activity at 10 µM: 134%
JNK2α2(h)
  remaining activity at 10 µM: 12%
IRAK1(h)
  remaining activity at 10 µM: 84%
LRRK2(h)
  remaining activity at 10 µM: 49%
